{"source": "patent US7645871B2", "about": "“Tumor inhibition by modulating sprouty expression of activity” (Michigan State University, priority 2005, dated 2010)", "tested_on": "HRas-transformed cells (PH3MT)", "experiment": "UV-induced apoptosis assay (AnnexinV-FITC, flow cytometry)", "assay_type": "cell-based, human", "settings": "Wortmannin 50 nM vs absence", "method": "Apoptosis was detected by staining the cells with AnnexinV-FITC (BD Biosciences, San Jose, Calif.) according to manufacturer's recommendations. Briefly, cells were plated at a density of 2×10^5 cells/60 mm-dish. 16 hours after plating, the cells were irradiated with UV at a dose of 30-60 J/m^2 and incubated at 37° C. under normal culture conditions for varying time periods. Subsequently, the cells were collected, washed twice with AnnexinV binding buffer and incubated with AnnexinV-FITC at room temperature for 15 mins. The cells were also stained with propidium iodide (PI) to distinguish between live and dead cells. AnnexinV-FITC positive cells were determined by flow cytometry under standard conditions. Cells that stained positively for AnnexinV were considered apoptotic, while cells that were positive for both annexinV and PI were not considered apoptotic. All experiments were repeated at least three times. Ras protects NIH3T3 fibroblasts from apoptosis induced by DNA-damage (Franke et al. (2003) Oncogene 22:8983-98). Experiments were conducted to determine whether this effect was produced in an H-Ras-transformed cell strain (PH3MT), which has a higher expression of Spry2 compared to its parental cell strain (MSU-1.1) (FIG. 10A). In these experiments, both MSU-1.1 and PH3MT cells were plated at a density of 2×10^5 cells per dish and allowed to grow overnight. […]", "note": "At least one structure is not confirmed: it was looked up by name or label, or the drawing left a doubt."}
{"smiles": "COC[C@H]1OC(=O)c2coc3c2[C@@]1(C)C1=C(C3=O)[C@@H]2CCC(=O)[C@@]2(C)C[C@H]1OC(C)=O", "note": "[Wortmannin]", "values": [{"measurement": "percentage of cells undergoing UV-induced apoptosis", "result": "percentage of cells undergoing apoptosis was increased"}]}
